Source: PubChem BioAssay AID1688 (National Center for Advancing Translational Sciences (NCATS), 2009)
The campaign covered roughly 220,000 compounds. About 2,400 (1.1%) were called active. Inconclusive means that the source gave no clear call. Such entries were picked first, then a sample of the others. Calls come from the whole dose curve; as a rule, active = well fitted inhibition curve with a large enough effect; inconclusive = small, poorly fitted or top-dose-only effect, or effect the other way; inactive = no such curve, though single readings can be large or run the other way. Where the call is inconclusive, the potency comes from a doubtful curve fit.
% is set by controls: 0 for no effect and ±100 for the full control effect; potency is the fitted concentration of half-maximal effect.

Assay: qHTS Multiplex Assay to Identify Dual Action Probes in a Cell Model of Huntington: Aggregate Formation (GFP); note: nearly all actives have a fitted effect of over 60% in size
Settings: PC12 HttQ103-GFP aggregates, Acumen cytometry, 40 h; activity change, negative = inhibition: at 46.1 µM (top of the series) unless noted
Summary of the method: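 Aggregates are detected as GFP objects 1–25 µm with signal 6 STDEV over background in lysates of induced PC12 cells. These carry Huntingtin exon 1 with 103 glutamines fused to GFP under an ecdysone promoter; compounds titrated.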
For `O=C(NC(=S)Nc1cc([N+](=O)[O-])ccc1O)c1cccnc1`, the Potency was “inactive”. With `Cc1nc(Nc2ccccc2Cl)sc1C(=O)Nc1ccccc1` the Potency was inconclusive: 8.91 µM [inhibitor, partial curve]. For `Cc1ccc(CNC(=O)c2cc3c(C)nc4ccccc4c3o2)cc1`, the Potency was active: 11.2 µM. In the case of `Cc1ccc(Cl)cc1N1CCN(C(=O)COc2ccc(S(=O)(=O)NC(C)C)cc2)CC1`, the Potency is reported as inconclusive: 10 µM [inhibitor, partial curve]. In the case of `COc1ccccc1-n1c(SCC(=O)NC2CCCC2)nc2cccnc21`, the Potency is reported as “inactive”. In the case of `O=C(/C=C/c1ccco1)NCc1ccccn1`, the Potency is reported as inconclusive: 14.1 µM [activator, partial curve]. In the case of `Cc1ccc(CN(Cc2cccnc2)C(=S)Nc2cccc(Cl)c2C)cc1`, the Potency is reported as inconclusive: 35.5 µM [inhibitor, single point]. For `O=C(CNc1ccccc1)c1ccc([N+](=O)[O-])cc1`, the Potency was “inactive”. With `CCOc1ccc(NC(=O)c2cccnc2SC)cc1` the Potency was “inactive”. In the case of `O=c1[nH]c2ccsc2c(=O)n1-c1ccc(F)cc1`, the Potency is reported as inconclusive: 12.6 µM [inhibitor, single point]. With `CCOC(=O)N1CCN(C(=O)COc2ccc(S(=O)(=O)Nc3ccc(OCC)cc3)cc2)CC1` the Potency was inconclusive: 12.6 µM [inhibitor, partial curve]. In the case of `O=C(Nc1ccc(N2CCOCC2)cc1)c1ccncc1`, the Potency is reported as “inactive”. With `Cc1ccc(-n2cccc2/C=C2\C(=N)N3N=C(C(C)C)SC3=NC2=O)cc1` the Potency was “inactive”. With `CC(C)N1C(=O)CCC1C(=O)N1CCCc2ccccc21` (stereo not drawn) the Potency was “inactive”. In the case of `CCN(CC)C(=O)CSc1nc2ccccc2c(=O)n1-c1cccc(OC)c1`, the Potency is reported as “inactive”. In the case of `COC(=O)C1(C(=O)OC)Sc2ccccc2C1=O`, the Potency is reported as inconclusive: 25.1 µM [inhibitor, single point]. In the case of `Cc1ccc(N=C2S/C(=C\c3cn(CC(=O)O)c4ccccc34)C(=O)N2C)cc1`, the Potency is reported as “inactive”. With `Cn1c(SCC(=O)O)nnc1-c1ccc2ncccc2c1` the activity change, negative = inhibition was inactive: -18.8% [at 9.22 µM]. In the case of `CC1CCN(C(=O)c2ccc3c(Cl)c4c(nc3c2)CCCC4)CC1`, the Potency is reported as inconclusive: 11.2 µM [inhibitor, single point]. In the case of `Cc1ccc(Nc2nc3nonc3[nH]c2=O)cc1Cl`, the Potency is reported as active: 22.4 µM. With `O=[N+]([O-])c1cc(CN2CCN(c3ccccc3)CC2)c(O)c2ncccc12` the Potency was inconclusive: 3.98 µM [inhibitor, single point]. With `Clc1cccc(OCCN2CCN(CCOc3cccc(Cl)c3)CC2)c1` the Potency was inconclusive: 15.8 µM [inhibitor, single point]. With `S=c1nc[nH]c2c1sc1nc(N3CCOCC3)c3c(c12)CCCC3` the Potency was “inactive”. In the case of `O=C(c1ccccc1)c1ccc2nc[nH]c2c1`, the Potency is reported as inconclusive: 15.8 µM [inhibitor, single point]. With `O=C(c1cccnc1)N1N=C(C2CCCCC2)CC1(O)C(F)(F)F` (stereo not drawn) the activity change, negative = inhibition was inactive: -8.54% [at 9.22 µM]. With `O=C(NNC(=S)NCc1ccco1)c1ccc(Cl)s1` the Potency was inconclusive: 35.5 µM [inhibitor, single point]. For `O=C(O)c1cc(N=Nc2ccc(O)c(C(=O)O)c2)ccc1O`, the Potency was inconclusive: 35.5 µM [inhibitor, single point]. In the case of `Cc1c(C(=O)Nc2cccc(Cl)c2)oc2ccc(S(=O)(=O)N3CCC4(CC3)OCCO4)cc12`, the Potency is reported as inconclusive: 4.47 µM [inhibitor, full curve, poor fit]. With `COc1ccc2[nH]c3c(N4CC(C)OC(C)C4)ncnc3c2c1` (stereo not drawn) the Potency was “inactive”. With `CCN(CC)S(=O)(=O)c1cc(NC(=O)C(C)N2CCc3ccccc32)ccc1C` (stereo not drawn) the Potency was inconclusive: 35.5 µM [inhibitor, single point]. In the case of `Cc1nc2cc(CO)ccc2s1`, the Potency is reported as “inactive”. For `O=c1[nH]ncc(N2CCCCC2)c1Cl`, the Potency was “inactive”. For `CC(C)(C)C1=C(C#N)C(c2cccnc2)C(C#N)=C(N)O1` (stereo not drawn), the Potency was inconclusive: 35.5 µM [inhibitor, single point]. With `O=C(Nc1ccc(S(=O)(=O)N2CCCCC2c2cccnc2)cc1)c1c(F)cccc1F` (stereo not drawn) the Potency was inconclusive: 35.5 µM [inhibitor, single point]. With `Cc1nc2ccccn2c1C(=O)NNC(=S)Nc1ccc(Cl)cc1` the Potency was inconclusive: 35.5 µM [inhibitor, partial curve]. In the case of `CC(=O)N(CCC(c1ccccc1)c1ccco1)Cc1cccs1` (stereo not drawn), the Potency is reported as inconclusive: 5.62 µM [inhibitor, single point]. In the case of `CC1C(=O)C(=O)C=CN1C` (stereo not drawn), the Potency is reported as “inactive”. With `O=S(=O)(Nc1ccc(Cc2ccncc2)cc1)c1ccc(Br)s1` the Potency was inconclusive: 8.91 µM [inhibitor, partial curve]. For `Cc1nc2ccccc2c(C)c1C(=O)c1ccccc1`, the Potency was inconclusive: 35.5 µM [inhibitor, single point]. For `O=C(NCC1CCCO1)c1nc2c(nnn2Cc2ccccc2Cl)c(=O)[nH]1` (stereo not drawn), the Potency was inconclusive: 0.794 µM [inhibitor, single point]. With `CC(=O)N1CCCN(Cc2nc(C3(c4ccc(C)cc4)CCCC3)no2)CC1` the Potency was inconclusive: 1.41 µM [inhibitor, full curve, poor fit]. In the case of `O=C1/C(=C/c2ccco2)SC(=S)N1C1CCS(=O)(=O)C1` (stereo not drawn), the Potency is reported as active: 4.47 µM. For `Fc1ccc(/C=N/n2c(-c3cccs3)n[nH]c2=S)cc1`, the Potency was inconclusive: 3.16 µM [inhibitor, partial curve]. With `CCOC(=O)NC(NC(=S)Nc1ccccc1OC)C(Cl)(Cl)Cl` (stereo not drawn) the Potency was “inactive”. In the case of `NN/C(=C\[N+](=O)[O-])Nc1ccccc1`, the Potency is reported as “inactive”. In the case of `CC1(C)CNC(=O)c2sc(NC(=O)c3ccccc3)nc2C1`, the Potency is reported as “inactive”. With `COc1cccc(OC)c1C(=O)Nc1nnc(-c2cccs2)s1` the activity change, negative = inhibition was inactive: 9.09% [at 9.22 µM]. For `CCn1c(=O)cc(SCC(=O)N2CCN(c3ccccc3F)CC2)c2ccccc21`, the Potency was inconclusive: 2.82 µM [activator, partial curve]. With `CSc1nnc(C)c(/C=C/Nc2ccc(C)cc2)n1` the Potency was inconclusive: 3.16 µM [inhibitor, single point]. For `O=C(Nc1ccc(SC(F)F)cc1)c1ccc2nccnc2c1`, the Potency was inconclusive: 12.6 µM [inhibitor, partial curve]. In the case of `C/C(=N\Nc1nc2ccccc2[nH]1)c1ccc2c(c1)OCO2`, the Potency is reported as inconclusive: 35.5 µM [inhibitor, single point]. With `COc1ccc(C(=O)Nc2ncc(C)s2)cc1S(=O)(=O)N1CCCC1` the Potency was inconclusive: 1.12 µM [activator, full curve, poor fit]. For `O=C(COC(=O)CNC(=O)c1cccc([N+](=O)[O-])c1)NCc1ccco1`, the Potency was “inactive”. In the case of `COCCOc1nc2c(c(=O)n(C)c(=O)n2C)n1Cc1cccc(OC)c1`, the Potency is reported as active: 8.91 µM. In the case of `CCOC(=O)c1cnc2ccc(C)cc2c1Nc1ccc(N2CCOCC2)cc1`, the Potency is reported as inconclusive: 15.8 µM [inhibitor, single point]. With `Cc1ccc(Oc2ccc(C(=O)NCc3ccncc3)cc2)cc1` the Potency was active: 11.2 µM. In the case of `CCSc1nnc(-c2ccccc2SC)o1`, the Potency is reported as inconclusive: 11.2 µM [inhibitor, single point]. In the case of `CCOC(=O)CN(C(=O)COc1nc(-c2ccccc2)cc(C)c1C#N)c1ccc(F)cc1`, the activity change, negative = inhibition is reported as inactive: -11% [at 9.22 µM]. In the case of `CCCCCn1ccc(=N)cc1`, the Potency is reported as inconclusive: 3.55 µM [inhibitor, single point]. For `CC(C)NC(=O)c1c(CSc2ccccc2)noc1C(=O)NCc1ccccc1`, the Potency was inconclusive: 4.47 µM [inhibitor, partial curve]. For `COC(C[C@@H]1O[C@@H]1C(=O)COCc1ccccc1)OC`, the activity change, negative = inhibition was inactive: 37.1% [at 9.22 µM]. In the case of `C[N+]1=C(/C=C/Nc2ccccc2Cl)C(C)(C)c2ccccc21`, the Potency is reported as active: 12.6 µM. With `CCCCCCCC[n+]1c(C)n(-c2ccccc2)c2ccc(NC(C)=O)cc21` the Potency was active: 10 µM. For `COCCN(C(=O)Cc1cccs1)C(C(=O)NCc1ccc(OC)cc1)c1ccc(C(C)C)cc1` (stereo not drawn), the Potency was “inactive”. With `CCOc1cc(CNc2ccc(Br)cc2)cc(Br)c1OCC(=O)NC(C)(C)C` the Potency was inconclusive: 0.891 µM [inhibitor, full curve, poor fit]. In the case of `O=C(O)CCSc1ccc2ccccc2n1`, the Potency is reported as “inactive”. In the case of `Cc1cc[n+]2c3c(cccc13)CCC2`, the Potency is reported as inconclusive: 11.2 µM [inhibitor, single point]. With `O=C(CN(C(=O)c1ccccc1Cl)C1CCCCC1)Nc1ccc(Cl)c([N+](=O)[O-])c1` the Potency was inconclusive: 22.4 µM [inhibitor, single point]. For `Cc1ccc2nc(N3CCN(S(=O)(=O)c4ccc5c(c4)OCCO5)CC3)c(C#N)cc2c1`, the Potency was inconclusive: 10 µM [inhibitor, partial curve]. With `COc1ccc(CCNc2ncnc3c2oc2ccccc23)cc1OC` the Potency was active: 2 µM. With `CCc1ccc2nc3c(c(C(=O)O)c2c1)CCC3` the Potency was “inactive”. For `CC(=O)c1c(C)nc(-c2ccc(Cl)cc2)nc1N`, the Potency was “inactive”. In the case of `COc1ccccc1NC(=O)c1ccc(-c2ccccc2[N+](=O)[O-])o1`, the Potency is reported as “inactive”. In the case of `CC(=O)NC1=NN(C(C)=O)C(C)(CCS(=O)(=O)c2ccc(Br)cc2)S1` (stereo not drawn), the Potency is reported as inconclusive: 35.5 µM [activator, single point]. With `COc1cccc(/C=N/Nc2ncc(C(F)(F)F)cc2Cl)c1O` the Potency was inconclusive: 0.891 µM [inhibitor, full curve]. With `Cc1ccccc1Nc1nnc(SCc2cc(=O)n3ccsc3n2)s1` the Potency was “inactive”. With `Cn1ncc(C#N)c1NC(=O)C1CC(c2ccc(Cl)c(Cl)c2)=NO1` (stereo not drawn) the Potency was inconclusive: 35.5 µM [inhibitor, single point]. For `CCOC(=O)c1ccc(S(=O)(=O)NNC(=O)COc2ccccc2C)cc1`, the Potency was inconclusive: 3.55 µM [inhibitor, partial curve].
